The results in this text go back to publication doi:10.1101/683441.

This experiment deals with GST-tagged Nedd4-2 WW3+WW4 (474-595 aa) (mouse). In words: pull-down.

No constants are given. Whether binding was seen depends on the method and setting. In cells and extracts the contact can be indirect. A result given as binding can be weak or reduced; the word gives no strength. Where a sequence is shown, tags or fusion partners need not be part of it.

B1: HA-tagged Kir4.1 (inwardly rectifying K+ channel 4.1) (protein, UniProt Q9JM63 1-379)
chain: MTSVAKVYYSQTTQTESRPLVAPGIRRRRVLTKDGRSNVRMEHIADKRFLYLKDLWTTFIDMQWRYKLLLFSATFAGTWFLFGVVWYLVAVAHGDLLELGPPANHTPCVVQVHTLTGAFLFSLESQTTIGYGFRYISEECPLAIVLLIAQLVLTTILEIFITGTFLAKIARPKKRAETIRFSQHAVVASHNGKPCLMIRVANMRKSLLIGCQVTGKLLQTHQTKEGENIRLNQVNVTFQVDTASDSPFLILPLTFYHVVDETSPLKDLPLRSGEGDFELVLILSGTVESTSATCQVRTSYLPEEILWGYEFTPAISLSASGKYIADFSLFDQVVKVASPSGLRDSTVRYGDPEKLKLEESLREQAEKEGSALSVRISNV
Regarding B1, the binding result was “binds”.
